PubChem BioAssay AID1259308 | NCATS, 2017

Purpose: 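Genes whose loss raises luciferase production in HEK293 cells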 (primary screen)
Cells: human HEK293 embryonic kidney cells stably expressing firefly luciferase (HEK-CMV-Luc2-Hygro)
Reagents: single siRNA against human genes, 0.8 pmol siRNA per well
Duration: 72 h
Measured: 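Reporter luminescence and viable-cell signal on separate replicate plates, given as percent of non-targeting control and median/MAD z-scores, plus per-cell luciferase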
Scale: total luciferase, z-score and total luciferase, % of control: higher = more reporter protein produced; luciferase per cell, z-score: higher = more reporter output per viable cell; viable cells, % of control: higher = more viable cells
Call rule: 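Active when the median/MAD z-score for overall luciferase is greater than 3; a gene was taken forward for validation with new siRNAs if at least two of its three siRNAs passed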
Calls: active = raised luciferase; inactive = no rise
Shown is one part, drawn at random, of about 59,000 reagents. Of all reagents, about 1,510 (2.6%) got an active call. 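Calls use total luciferase alone and ignore viability, so some active siRNAs may act by altering cell number.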 Reagents against one gene are numbered here. Reagent sequences are not shown.

The first 2 records as a preview:
| gene symbol | reagent no. | total luciferase, z-score | total luciferase, % of control | luciferase per cell, z-score | viable cells, % of control | outcome |
| --- | --- | --- | --- | --- | --- | --- |
| MAP3K21 | 1 | 0.854 | 98.9 | 0.541 | 95.8 | inactive |
| MAP3K21 | 2 | 1.96 | 121 | 1.68 | 86.8 | inactive |

Main list, from the start:
| gene symbol | reagent no. | total luciferase, z-score | total luciferase, % of control | luciferase per cell, z-score | viable cells, % of control | outcome |
| --- | --- | --- | --- | --- | --- | --- |
| MAP3K21 | 1 | 0.854 | 98.9 | 0.541 | 95.8 | inactive |
| MAP3K21 | 2 | 1.96 | 121 | 1.68 | 86.8 | inactive |
| MAP3K21 | 3 | 1.64 | 114 | 1.54 | 85.3 | inactive |
| GZMB | 1 | -0.955 | 62.9 | -1.36 | 101 | inactive |
| GZMB | 2 | 0.757 | 97 | 0.615 | 92.2 | inactive |
| GZMB | 3 | -0.4 | 73.9 | -0.932 | 106 | inactive |
| SIK3 | 1 | 2.16 | 125 | 1.27 | 99.9 | inactive |
| SIK3 | 2 | 1.5 | 112 | 1.5 | 84.2 | inactive |
| SIK3 | 3 | 3.25 | 147 | 1.75 | 103 | active |
| TMEM94 | 1 | 0.503 | 91.9 | 0.269 | 95.7 | inactive |
| TMEM94 | 2 | 0.702 | 95.9 | -0.0288 | 108 | inactive |
| TMEM94 | 3 | -0.0167 | 81.6 | -0.62 | 107 | inactive |
| ABCD2 | 1 | -0.495 | 72 | -0.722 | 97.3 | inactive |
| ABCD2 | 2 | 1.16 | 105 | 0.983 | 90.6 | inactive |
| ABCD2 | 3 | -1.04 | 61.2 | -0.982 | 88.6 | inactive |
| TNS4 | 1 | -0.0327 | 81.2 | -0.273 | 97.6 | inactive |
| TNS4 | 2 | 1.29 | 108 | 2.28 | 66 | inactive |
| TNS4 | 3 | 1.05 | 103 | 1.63 | 74.8 | inactive |
| OR5H6 | 1 | -0.282 | 76.3 | -0.238 | 90.8 | inactive |
| OR5H6 | 2 | 0.833 | 98.5 | 1.2 | 80.1 | inactive |
| OR5H6 | 3 | -0.396 | 74 | -0.608 | 97.1 | inactive |
| OR52B2 | 1 | -0.599 | 70 | 0.429 | 69.8 | inactive |
| OR52B2 | 2 | -2.29 | 36.3 | -1.86 | 66.2 | inactive |
| OR52B2 | 3 | 0.0777 | 83.4 | 0.476 | 82.3 | inactive |
| DUSP9 | 1 | 1.28 | 107 | 0.773 | 97.8 | inactive |
| DUSP9 | 2 | 3.67 | 155 | 2.94 | 79.8 | active |
| DUSP9 | 3 | -1.51 | 51.9 | -2.26 | 105 | inactive |
| OCLNP1 | 1 | -0.322 | 75.5 | -0.55 | 97.5 | inactive |
| OCLNP1 | 2 | 0.629 | 94.4 | 1.01 | 80.9 | inactive |
| OCLNP1 | 3 | -0.347 | 75 | -0.554 | 97 | inactive |
| SLC6A12 | 1 | -0.67 | 68.6 | -0.26 | 82 | inactive |
| SLC6A12 | 2 | 0.112 | 84.1 | -0.612 | 110 | inactive |
| SLC6A12 | 3 | -0.524 | 71.5 | -1.11 | 107 | inactive |
| SGCG | 1 | -1.59 | 50.3 | -1.87 | 91.9 | inactive |
| SGCG | 2 | 1.47 | 111 | 1.61 | 81.3 | inactive |
| SGCG | 3 | -0.647 | 69 | 0.0476 | 76.2 | inactive |
| NCOR1 | 1 | -0.529 | 71.4 | -0.911 | 101 | inactive |
| NCOR1 | 2 | -1.61 | 49.8 | 1.01 | 42.7 | inactive |
| NCOR1 | 3 | 0.777 | 97.3 | 1.42 | 74.9 | inactive |
